Assay results taken from publication PMC13378530.
Construct, isoform or probe ends are uncertain for at least one entry.

Target: p53 DBD (UniProt P04637)
Assay: EMSA
Conditions: 400 nM p53 DBD, 5 nM probe, no U14; 50 mM Tris-HCl pH 7.5, 10 mM MgCl2, 1 mM ATP, 25 ug/mL BSA, 10% glycerol, 10 mM DTT, 200 mM KCl; p53+U14 30 min at 4 C, then probe 90 min on ice; recombinant protein; residues 94-312; label: 5'-FAM on forward strand

Sequence: CGGGCATGTCCGGGCATGTCCTG (double strand) [p53RE probe]
- binding result: binds
